Measured values taken from patent US20180282430A1 (Bayer, published 2018).
These are yes or no findings as the source states them, for the method shown. Some results given as binding are weak or reduced against the parent protein; the word gives no strength.

The chains behind the UniProt entries cited, without tags or fusion partners. Residues count along the entry.
UniProt P10646, residues 29-304: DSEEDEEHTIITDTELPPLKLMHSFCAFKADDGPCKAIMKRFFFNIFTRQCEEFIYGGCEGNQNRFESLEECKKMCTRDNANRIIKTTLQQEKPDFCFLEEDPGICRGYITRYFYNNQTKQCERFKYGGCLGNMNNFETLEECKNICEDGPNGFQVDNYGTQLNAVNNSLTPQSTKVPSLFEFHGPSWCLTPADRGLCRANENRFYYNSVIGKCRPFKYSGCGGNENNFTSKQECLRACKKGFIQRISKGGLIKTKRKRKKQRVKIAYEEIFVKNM

Biological target: Human TFPI (tissue factor pathway inhibitor) (human) (UniProt P10646)
Assay: SPR (Biacore T200): human TFPI amine-coupled on a CM4 or CM5 chip, Fab variant injected, dissociation followed in pH 7.4 or pH 6.0 buffer

binding | Binder
binds | 2A8-g200 Fab VL-L27H (Fab, V domains shown, Member of the 2A8-g200 Fab histidine scanning library) VH: EVQLVESGGGLVQPGGSLRLSCAASGFTFSSYGMDWVRQAPGKGLEWVSSIRGSRGSTYYADSVKGRFTISRDNSKNTLYLQMNSLRAEDTAVYYCARLYRYWFDYWGQGTLVTVSS VL: SYELTQPPSVSVSPGQTARITCSGDNHPKYYAHWYQQKPGQAPVVVIFYDVNRPSGIPERFSGSNSGNTATLTISGTQAMDEADYYCQAWWSSTPVFGGGTKLTVLG
binds | 2A8-g200 Fab VL-Y31H (Fab, V domains shown, Member of the 2A8-g200 Fab histidine scanning library) VH: EVQLVESGGGLVQPGGSLRLSCAASGFTFSSYGMDWVRQAPGKGLEWVSSIRGSRGSTYYADSVKGRFTISRDNSKNTLYLQMNSLRAEDTAVYYCARLYRYWFDYWGQGTLVTVSS VL: SYELTQPPSVSVSPGQTARITCSGDNLPKYHAHWYQQKPGQAPVVVIFYDVNRPSGIPERFSGSNSGNTATLTISGTQAMDEADYYCQAWWSSTPVFGGGTKLTVLG
